Experimental data as given in patent publication US4016280A, “4,4-Diarylpiperidine compositions and use” (Byk Gulden Lomberg Chemische Fabrik GmbH, priority 1969, dated 1977).
Some results were stated once for a whole list of compounds, not compound by compound.

Test system: albino mouse
Assay: General behaviour of the albino mouse with different doses
Format: in vivo
Method: Acute toxi- General behaviour of the albino
city in the mouse with different doses*
*drugs administered per os
**administered in doses from 50 to 300 mg/kg

c1ccc(CCN2CCC(c3ccccc3)(c3ccccc3)CC2)cc1 [Example 5, 1-Phenethyl-4,4-diphenylpiperidine]
Locomotory activity (in words): only slightly increased | Restlessness, stereotypia or salivation (in words): without causing restlessness, sterotypia or salivation | Vigilance of the animal (in words): strong increase

CC(C)N1CCC(c2ccccc2)(c2ccccc2)CC1 [Example 4, 1-Isopropyl-4,4-diphenylpiperidine]
Locomotory activity (in words): only slightly increased | Restlessness, stereotypia or salivation (in words): without causing restlessness, sterotypia or salivation | Vigilance of the animal (in words): strong increase

CCN1CCC(c2ccccc2)(c2ccccc2)CC1 [Example 3, 1-Ethyl-4,4-diphenylpiperidine]
Locomotory activity (in words): only slightly increased | Restlessness, stereotypia or salivation (in words): without causing restlessness, sterotypia or salivation | Vigilance of the animal (in words): strong increase
